No constants are given. Whether binding was seen depends on the method and setting. Binding seen in cells or lysates may run through a third protein. Some results given as binding are weak or reduced against the parent protein; the word gives no strength.
Molecular target: T1, Bcl-2 (mouse (endogenous in mouse kidney)), P10417
T1 chain: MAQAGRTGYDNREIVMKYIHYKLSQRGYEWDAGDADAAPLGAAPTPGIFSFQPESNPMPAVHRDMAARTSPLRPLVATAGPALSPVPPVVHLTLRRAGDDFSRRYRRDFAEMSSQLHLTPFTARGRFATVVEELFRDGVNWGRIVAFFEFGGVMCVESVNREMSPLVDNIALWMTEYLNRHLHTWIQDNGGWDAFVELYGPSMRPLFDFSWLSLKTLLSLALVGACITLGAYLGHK
Assay: co-IP; whole kidney lysates of LC3 and PLC3 mice (baseline or post-IRI; with or without rapamycin injection before surgery); precipitated with a mouse monoclonal Bcl-2 antibody, blotted for Bcl-2 and Beclin 1
Conditions: remark: other sources report otherwise

binding: binds
B1: Beclin 1, O88597 1-448 (protein)
chain: MEGSKASSSTMQVSFVCQRCSQPLKLDTSFKILDRVTIQELTAPLLTTAQAKPGETQEEEANSGEEPFIETRQDGVSRRFIPPARMMSTESANSFTLIGEASDGGTMENLSRRLKVTGDLFDIMSGQTDVDHPLCEECTDTLLDQLDTQLNVTENECQNYKRCLEILEQMNEDDSEQLQRELKELALEEERLIQELEDVEKNRKVVAENLEKVQAEAERLDQEEAQYQREYSEFKRQQLELDDELKSVENQVRYAQIQLDKLKKTNVFNATFHIWHSGQFGTINNFRLGRLPSVPVEWNEINAAWGQTVLLLHALANKMGLKFQRYRLVPYGNHSYLESLTDKSKELPLYCSGGLRFFWDNKFDHAMVAFLDCVQQFKEEVEKGETRFCLPYRMDVEKGKIEDTGGSGGSYSIKTQFNSEEQWTKALKFMLTNLKWGLAWVSSQFYNK
